Laboratory results: patent US10155802B2, “Locally-active anticoagulants and anti-inflammatory agents” (priority 2011, dated 2018)
At least one peptide structure holds a part that was inferred or is arguable (an end, a ring closure or a residue). Non-standard residues stand in square brackets, D forms with d. Residues, ends and D or L forms follow the SMILES beside them. *: point of attachment. Dansyl = CN(C)c1cccc2c(S(=O)(=O)*)cccc12; dPip = O=C(O)[C@H]1CCCCN1; Abu = CC[C@H](N)C(=O)O

Target: T1, Human α-thrombin (Homo sapiens, UniProt P00734)
T1 construct: Human α-thrombin was purchased from Haemotologic Technologies, Inc., VT, USA; purchased Haemotologic Technologies, Inc., VT, USA
Assay: Thrombin inhibition constants of monovalent active-site moieties and TWE1 (method not described)
Type: biochemical
Conditions: monovalent binding moieties for the active site of thrombin

CC[C@H](NC(=O)[C@H]1CCCCN1C(=O)[C@H](CCCNC(=N)N)NS(=O)(=O)c1cccc2c(N(C)C)cccc12)C(N)=O [Dansyl-R-(d-Pip)-Abu-NH2] (Dansyl-Arg-[dPip]-[Abu]-NH2)
Ki: 820 ± 30 nM
